Measurements published in publication PMC3694841.
No constants are given. Whether binding was seen depends on the method and setting. Binding seen in cells or lysates may run through a third protein. A result given as binding can be weak or reduced; the word gives no strength.

Target: T1, Slit (pUAST-slit) (Drosophila melanogaster) (UniProt P24014)
T1 sequence: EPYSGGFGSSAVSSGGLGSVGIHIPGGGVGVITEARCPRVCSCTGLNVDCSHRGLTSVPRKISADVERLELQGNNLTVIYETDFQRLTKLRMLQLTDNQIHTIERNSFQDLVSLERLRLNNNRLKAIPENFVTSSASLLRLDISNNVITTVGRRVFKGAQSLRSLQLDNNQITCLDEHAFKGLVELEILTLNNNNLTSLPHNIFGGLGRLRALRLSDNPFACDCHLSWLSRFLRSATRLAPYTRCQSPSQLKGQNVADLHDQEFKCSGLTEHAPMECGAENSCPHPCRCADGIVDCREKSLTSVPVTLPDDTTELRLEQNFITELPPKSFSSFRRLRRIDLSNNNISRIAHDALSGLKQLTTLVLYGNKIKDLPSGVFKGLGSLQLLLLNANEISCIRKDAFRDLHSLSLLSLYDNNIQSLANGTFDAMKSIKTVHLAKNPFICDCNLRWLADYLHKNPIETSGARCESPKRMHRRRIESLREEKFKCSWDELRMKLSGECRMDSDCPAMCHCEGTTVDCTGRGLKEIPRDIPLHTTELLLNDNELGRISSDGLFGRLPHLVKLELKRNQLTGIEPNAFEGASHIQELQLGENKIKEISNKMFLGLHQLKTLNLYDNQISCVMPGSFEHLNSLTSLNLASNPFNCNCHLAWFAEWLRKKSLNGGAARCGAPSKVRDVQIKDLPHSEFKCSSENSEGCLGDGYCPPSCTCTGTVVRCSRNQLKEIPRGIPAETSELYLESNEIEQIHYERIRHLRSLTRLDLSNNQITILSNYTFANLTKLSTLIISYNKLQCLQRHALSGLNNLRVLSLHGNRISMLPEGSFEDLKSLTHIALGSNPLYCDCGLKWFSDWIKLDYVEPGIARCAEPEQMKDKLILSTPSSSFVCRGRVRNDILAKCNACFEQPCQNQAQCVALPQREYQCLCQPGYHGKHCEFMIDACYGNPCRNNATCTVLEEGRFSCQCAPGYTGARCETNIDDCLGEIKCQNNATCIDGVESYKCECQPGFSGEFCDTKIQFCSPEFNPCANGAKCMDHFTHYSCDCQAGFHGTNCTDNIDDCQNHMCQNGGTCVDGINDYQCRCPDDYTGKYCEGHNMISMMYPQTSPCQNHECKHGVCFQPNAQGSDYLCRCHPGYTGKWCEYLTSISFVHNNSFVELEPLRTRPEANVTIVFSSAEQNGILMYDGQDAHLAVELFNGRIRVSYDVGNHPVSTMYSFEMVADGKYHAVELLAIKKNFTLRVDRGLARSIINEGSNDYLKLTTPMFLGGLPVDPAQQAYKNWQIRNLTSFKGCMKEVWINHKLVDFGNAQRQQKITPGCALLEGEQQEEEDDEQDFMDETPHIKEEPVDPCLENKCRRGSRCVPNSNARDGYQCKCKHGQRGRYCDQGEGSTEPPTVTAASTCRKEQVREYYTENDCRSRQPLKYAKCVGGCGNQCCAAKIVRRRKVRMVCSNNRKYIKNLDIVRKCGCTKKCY
Test: co-IP; soluble lysate (0.5% NP40 in PBS) of S2 (SR+) cells co-transfected with Robo, Slit and Mp; protein A/G beads pre-coupled with mouse anti Slit antibody (control: normal mouse serum), overnight at 4°C; Western blot with anti Slit, Mp and Robo

| Substance | binding |
| --- | --- |
| Robo-HA (pUAST-robo-HA) (Drosophila melanogaster) (receptor) | binds |
| Multiplexin (Mp), cDNA 3hnc1 (Drosophila melanogaster) | binds |
